These results are taken from article PMC7819943, “Rice protein-binding microarrays: a tool to detect cis-acting elements near promoter regions in rice”.

Amino acid sequences for entries named in this document (tags omitted).
UniProt Q0JBA9, entry or part of it: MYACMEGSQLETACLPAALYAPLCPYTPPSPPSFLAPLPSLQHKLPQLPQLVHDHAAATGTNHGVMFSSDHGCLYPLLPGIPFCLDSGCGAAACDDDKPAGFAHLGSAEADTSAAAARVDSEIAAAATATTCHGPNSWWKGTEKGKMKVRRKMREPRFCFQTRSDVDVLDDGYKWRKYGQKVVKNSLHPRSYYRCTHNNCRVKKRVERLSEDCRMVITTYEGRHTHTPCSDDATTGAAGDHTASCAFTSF

The list shows a part of the results.

The target of the assay is OsWRKY34 (Oryza sativa, UniProt Q0JBA9 1-250). Kind of assay: protein-binding microarray (RPBM); PBS, 2% BSA, 51.3 ng/ul salmon testes DNA, 50 uM zinc acetate, 200 nM TF, 25 C, 1 h; high values mean tight binding. The note with it: protein: recombinant; tags: N-terminal polyhistidine and DsRed monomer fusion (pET32a); label: CyDye5-dUTP incorporated in the synthesized complementary strand; 3' TTTTT single-stranded linker to array surface; dsDNA, one strand shown. Summed up: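 The binding signal is fluorescence intensity per feature, in arbitrary units, read on an Axon 4000B scanner. Polyhistidine- and DsRed-tagged transcription factors (N-terminal fusions) from E. coli BL21-CodonPlus were purified on Ni–NTA and applied at 200 nM for 1 h at 25 °C to a double-stranded, BSA-blocked custom Agilent array in buffer with 50 µM zinc acetate.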
As for “GCCCAGTCCAATCTATCATCAGATTCCTTTTATACAATATCGGAGTCACCTAGTGCAG”, the binding signal was 8040 fluorescence intensity (a.u.).
Regarding “AACACAGCCTAAATCTATCTTCTTTTTTTTAATTACTATTCGGAGTCACCTAGTGCAG”, the binding signal is 9840 fluorescence intensity (a.u.).
Take “CCGTGCCGCCGCCGGCGACCGTCGTCCGTCGCTCACGCTGCGGAGTCACCTAGTGCAG”: the binding signal was 8580 fluorescence intensity (a.u.).
Take “GTCTCATGTCACACTCACGTAGCTATATTTTTTATATTATCGGAGTCACCTAGTGCAG”: the binding signal was 9120 fluorescence intensity (a.u.).
The figure for “CGTACTATAATTTTGTCATTCCTGTTGAAATTTTATAATTCGGAGTCACCTAGTGCAG” is 9340 fluorescence intensity (a.u.); for “GATCCTTACCCGTTCCTCTTGACATCACCCGTTGCCGTTCCGGAGTCACCTAGTGCAG” it is 10800 fluorescence intensity (a.u.).
Consider “GGGCAAGCTAGCCGGCGGGTGGGGATGAGGTCGCCGACAACGGAGTCACCTAGTGCAG”, for which the binding signal was 10200 fluorescence intensity (a.u.).
Take “CTGTTCAGAGACCAGCCTTATCTCTCTTTCGTTTTCTCTCCGGAGTCACCTAGTGCAG”: the binding signal is 9670 fluorescence intensity (a.u.).
For “CATTCGCTTATTCCTCTATGTGTGCCACAATTCTCACAGCCGGAGTCACCTAGTGCAG”, the binding signal was 12400 fluorescence intensity (a.u.).
Turning to “TAGAAGAGCGCGTTGACACCGTTGACTTTGGATTTTCCGTCGGAGTCACCTAGTGCAG”, the binding signal was 18700 fluorescence intensity (a.u.).
The result for “AGGGGTTGTAATTGGTTTAGAGGTGGAGGTAGATAAGAAACGGAGTCACCTAGTGCAG” reads 10100 fluorescence intensity (a.u.); that for “AACACCGTCATGTTGCCTTCACAGAATAGGGTCAAGCCCCCGGAGTCACCTAGTGCAG”, 8070 fluorescence intensity (a.u.); that for “GATTGCAATTGATGATTATGTCCGTTATCAATTCCTACTCCGGAGTCACCTAGTGCAG”, 8960 fluorescence intensity (a.u.).
With “TCATTTCTGCATTATTGGGAGGGGCGGATCTACAGTGTTACGGAGTCACCTAGTGCAG”, the binding signal was 15200 fluorescence intensity (a.u.).
For “GGAGTTTGGTTGGTTGGTGGTGTTCTTGACGGGGCATGGACGGAGTCACCTAGTGCAG”, the binding signal is 31200 fluorescence intensity (a.u.).
As for “AAACTCAACCAGCAGTCTCGTCTTAACCCCTAGCAGCTACCGGAGTCACCTAGTGCAG”, the binding signal is 11600 fluorescence intensity (a.u.).
Regarding “GTCAAGTTCTATCCCTTGGGCATCAACAATATCTTATGACCGGAGTCACCTAGTGCAG”, the binding signal is 8950 fluorescence intensity (a.u.).
Regarding “ACCTAAACCAATATAATTTCTTTGCTCTCGCTTGCATTTACGGAGTCACCTAGTGCAG”, the binding signal was 8840 fluorescence intensity (a.u.).
Turning to “CAACGTTGACCCGGGTTGACCCACGGTTCTTCAACAAATGCGGAGTCACCTAGTGCAG”, the binding signal is 20700 fluorescence intensity (a.u.).
The result for “CACCGACCATTACAGTCTGCGCTTCCTTCTGGACCAACGTCGGAGTCACCTAGTGCAG” reads 12300 fluorescence intensity (a.u.).
For “TGTGCCCGCTGCGCCAAGGGCTACGCCGTCCAGTCCGACTCGGAGTCACCTAGTGCAG”, the binding signal is 48500 fluorescence intensity (a.u.).
For “ATAACTTCAGTTATTTTGGCAACCCTTTTTGTGTTCATTACGGAGTCACCTAGTGCAG”, the binding signal was 10400 fluorescence intensity (a.u.).
Take “TCGGGGTTAAGGTTGAAAGATGATTGGCATGTGTATTTTTCGGAGTCACCTAGTGCAG”: the binding signal was 12300 fluorescence intensity (a.u.).
Take “CAAACCAAGTCACGGTACACGCGTGGACCGCGCACAGATTCGGAGTCACCTAGTGCAG”: the binding signal was 8420 fluorescence intensity (a.u.).
The figure for “ACATGTCCTCATTTGTTCGATTTAGCTCTACTGCCTTCTACGGAGTCACCTAGTGCAG” is 9280 fluorescence intensity (a.u.).
For the sequence “CCTCACCACGAATACGAAACTATATCAGTTCTGCTGCTTTCGGAGTCACCTAGTGCAG”, the binding signal is 8580 fluorescence intensity (a.u.).
With “CCTCCATCTTGGAGGTTGCAACTGGTTTATTATCTTTGTTCGGAGTCACCTAGTGCAG”, the binding signal is 9240 fluorescence intensity (a.u.).
The figure for “GTCCGCAAGCTCCTATATAGTACTTCCATCTCATTTTGACCGGAGTCACCTAGTGCAG” is 8030 fluorescence intensity (a.u.); for “CTGCTCACCACCATCACGCATTTTCTTTTACCGGCCGGATCGGAGTCACCTAGTGCAG” it is 10700 fluorescence intensity (a.u.).
For the sequence “TGAAATGTATATCTAATCATTTATTGTTGTGCTTGTATCTCGGAGTCACCTAGTGCAG”, the binding signal is 9180 fluorescence intensity (a.u.).
Take “TTTAGCAATAATCGTGTCCTCGCAGCGAAGCAATTGCCCACGGAGTCACCTAGTGCAG”: the binding signal was 8260 fluorescence intensity (a.u.).
The result for “GCTCTTGGAGATGCTCTTAATTTGTGCTAACAATCCTGATCGGAGTCACCTAGTGCAG” reads 8250 fluorescence intensity (a.u.).
As for “TTTTTTTCTTGGTATATATCAAATTTGGGTTAACCGGCCTCGGAGTCACCTAGTGCAG”, the binding signal is 8590 fluorescence intensity (a.u.).
Regarding “TAGCGATCGCATTTTGGGCCAGATTTGGGTTAGTATGTTTCGGAGTCACCTAGTGCAG”, the binding signal was 9480 fluorescence intensity (a.u.).
On to “CGGATTTTTTTGCACGAACACGCCAGCACTAATCTTGAGGCGGAGTCACCTAGTGCAG”, for which the binding signal is 8290 fluorescence intensity (a.u.).
The figure for “TCTACCAAGGGATTCTTGTATTTCGTTGCTCACATCCATCCGGAGTCACCTAGTGCAG” is 9360 fluorescence intensity (a.u.); for “TTTTTTTGTAACATACACATTTACTTCTCTTAGCCAAGGCCGGAGTCACCTAGTGCAG” it is 8120 fluorescence intensity (a.u.); for “CGCGTGCACGTTTTTCAATCTGTTAAATGGTGTGTTTTTTCGGAGTCACCTAGTGCAG” it is 8090 fluorescence intensity (a.u.).
With “CGACTTTGTTTTACCATTGTTTTTTTTGTCTTGTTTTAGTCGGAGTCACCTAGTGCAG”, the binding signal is 10600 fluorescence intensity (a.u.).
The result for “CCACCCACTTGATCGTCTTCATAAGACAGTTTTTACTAATCGGAGTCACCTAGTGCAG” reads 8570 fluorescence intensity (a.u.).
For “AGCTGGTGCGCAACGTTGCACTTTTCCCAGTCCTTCGCATCGGAGTCACCTAGTGCAG”, the binding signal is 8550 fluorescence intensity (a.u.).
The result for “ATGAAGATTGGGAGGTCGAGTTTGGCCCGCATAGGTTCTCCGGAGTCACCTAGTGCAG” reads 8150 fluorescence intensity (a.u.); that for “ATTTGACGCCGTTACTTTTTTTAAAAATGTTTGGCCGTTCCGGAGTCACCTAGTGCAG”, 8270 fluorescence intensity (a.u.).
In the case of “GTTAATTGTCATCGATTTCCCGATTCTTTTGTCAAATTTACGGAGTCACCTAGTGCAG”, the binding signal is 9640 fluorescence intensity (a.u.).
Regarding “TGGTGGAGAAGCTAATGAAGAGGGTGTTTTGTTGACTATGCGGAGTCACCTAGTGCAG”, the binding signal is 8500 fluorescence intensity (a.u.).
On to “ATTAACTGGTACCTCATCGATTGAACATATATATGCATTACGGAGTCACCTAGTGCAG”, for which the binding signal is 8820 fluorescence intensity (a.u.).
On to “TCGCCGGCACCGTTGACAGTTGACACCTTTCGGCCAGCCGCGGAGTCACCTAGTGCAG”, for which the binding signal was 9050 fluorescence intensity (a.u.).
Turning to “ATGTCAGCCGCATCCGACCCAAAGGGCCTAAATTTCCGATCGGAGTCACCTAGTGCAG”, the binding signal was 8490 fluorescence intensity (a.u.).
In the case of “GCCCTGACCGCGTCCGTCCCTCCACCGCATGACATCTCGGCGGAGTCACCTAGTGCAG”, the binding signal is 8340 fluorescence intensity (a.u.).
“GCCCGGCCCATCACCGTCACCCTCCCTCGTGTCCTCTTCACGGAGTCACCTAGTGCAG”: the binding signal was 8190 fluorescence intensity (a.u.).
With “ACACTACTCCGTTCGTTTATTTTGACGTCATCGTATCTAACGGAGTCACCTAGTGCAG”, the binding signal was 8700 fluorescence intensity (a.u.).
For “TTCACTCGTTGGTCAACTTCAACATTTGTTTCACTCGTTGCGGAGTCACCTAGTGCAG”, the binding signal is 9290 fluorescence intensity (a.u.).
Regarding “CTTTCTTTGCGGGGAGTTTATAGTTTGGATTGAGGCGGTACGGAGTCACCTAGTGCAG”, the binding signal was 9230 fluorescence intensity (a.u.).
The figure for “GGCGGCATCTCGCTCTACCGCGGGTGGGGCTTCGACTCCGCGGAGTCACCTAGTGCAG” is 12100 fluorescence intensity (a.u.).
